Experimental data published in publication PMC9788671.
These are yes or no findings as the source states them, for the method shown. In cells and extracts the contact can be indirect. These calls come from enrichment with a bait or labelling near it, and not all partners need be listed.

Amino acid sequences for entries named in this document (tags omitted).
UniProt Q9NZV8: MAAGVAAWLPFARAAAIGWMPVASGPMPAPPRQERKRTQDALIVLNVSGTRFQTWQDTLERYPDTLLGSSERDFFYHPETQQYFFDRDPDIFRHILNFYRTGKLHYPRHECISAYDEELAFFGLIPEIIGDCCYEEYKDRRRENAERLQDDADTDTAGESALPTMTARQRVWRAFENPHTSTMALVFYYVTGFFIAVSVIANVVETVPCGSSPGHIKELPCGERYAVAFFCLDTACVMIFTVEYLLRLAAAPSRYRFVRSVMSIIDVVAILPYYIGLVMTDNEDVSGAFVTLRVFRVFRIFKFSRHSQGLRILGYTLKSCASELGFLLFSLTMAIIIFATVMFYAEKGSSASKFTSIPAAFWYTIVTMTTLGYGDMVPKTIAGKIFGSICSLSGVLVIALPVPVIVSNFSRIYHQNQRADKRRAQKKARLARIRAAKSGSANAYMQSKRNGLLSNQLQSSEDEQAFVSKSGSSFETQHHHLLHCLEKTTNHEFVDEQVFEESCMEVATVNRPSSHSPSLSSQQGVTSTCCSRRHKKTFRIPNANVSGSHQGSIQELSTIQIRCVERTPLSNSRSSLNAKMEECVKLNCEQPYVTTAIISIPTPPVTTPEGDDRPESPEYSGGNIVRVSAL

Target: TAP-Kv4.2 (human) (UniProt Q9NZV8)
Assay: affinity purification with mass spectrometry; TAP-Kv4.2 expressed by lentivirus in rat hippocampal neurons, harvested at DIV14; weak lysis buffer of the kit (0.1% NP-40); streptavidin resin, then calmodulin resin; gel cut into high and low molecular weight fragments; no MS of the control sample

Binder | binding
Rbm4 (protein, UniProt M0R3R6 1-365) MVKLFIGNLPREATEQEIRSLFEQYGKVLECDIIKNYGFVHIEDKTAAEDAIRNLHHYKLHGVNINVEASKNKSKASTKLHVGNISPTCTNQELRAKFEEYGPVIECDIVKDYAFVHMERAEDAVEAIRGLDNTEFQGKRMHVQLSTSRLRTAPGMGDQSGCYRCGKEGHWSKECPIDRSGRVADLTEQYNEQYGAVRTPYTMSYGDSLYYNNTYGALDAYYKRCRAARSYEAVAAAAASAYNNYAEQTLSQLPQVQNTAMASHLTSTSLDPYNRHLLPPSGAAAAAAAAAAAAAACTAASTPYYGRDRSPLRRATGPVPTVGEGYGYGHDSELSQASAAARNSLYDMARYEREQYADRARYSAF | binds
Micu1 (protein, UniProt Q6P6Q9 34-477) MLVAFLGASAVTASTGLLWKKAHAESPPSVNSKKTDAGDKGKSKDTREVSSHEGSAADTAAEPYPEEKKKKRSGFRDRKVMEYENRIRAYSTPDKIFRYFATLKVINEPGETEVFMTPQDFVRSITPNEKQPEHLGLDQYIIKRFDGKKIAQEREKFADEGSIFYTLGECGLISFSDYIFLTTVLSTPQRNFEIAFKMFDLNGDGEVDMEEFEQVQSIIRSQTSMGMRHRDRPTTGNTLKSGLCSALTTYFFGADLKGKLTIKNFLEFQRKLQHDVLKLEFERHDPVDGRISERQFGGMLLAYSGVQSKKLTAMQRQLKKHFKDGKGLTFQEVENFFTFLKNINDVDTALSFYHMAGASLDKVTMQQVARTVAKVELSDHVCDVVFALFDCDGNGELSNKEFVSIMKQRLMRGLEKPKDMGFTRLMQAMWKCAQETAWDFALPK | binds
Copb1 (protein, UniProt P23514 1-953) MTAAENVCYTLINVPMDSEPPSEISLKNDLEKGDVKSKTEALKKVIIMILNGEKLPGLLMTIIRFVLPLQDHTIKKLLLVFWEIVPKTTPDGRLLHEMILVCDAYRKDLQHPNEFIRGSTLRFLCKLKEAELLEPLMPAIRACLEHRHSYVRRNAVLAIYTIYRNFENLIPDAPELIHDFLVNEKDASCKRNAFMMLIHADQDRALDYLSTCIDQVQTFGDILQLVIVELIYKVCHANPSERARFIRCIYNLLQSSSPAVKYEAAGTLVTLSSAPTAIKAAAQCYIDLIIKESDNNVKLIVLDRLVELKEHPAHERVLQDLVMDILRVLSTPDLEVRKKTLQLALDLVSSRNVEELVIVLKKEVIKTNNVSEHEDTDKYRQLLVRTLHSCSVRFPDMAANVIPVLMEFLSDSNEAAAADVLEFVREAIQRFDNLRMLIVEKMLEVFHAIKSVKIYRGALWILGEYCSTKEDIQSVMTEVRRSLGEIPIVESEIKKEAGELKPEEEITVGPVQKLVTEMGTYATQSALSSSRPTKKEEDRPPLRGFLLDGDFFVAASLATTLTKIALRYVALVQEKKKQNSFVAEAMLLMATILHLGKSSLPKKPITDDDVDRISLCLKVLSECSPLMNDIFNKECRQSLSQMLSAKLEEEKLSQKKESEKRNVTVQPDDPISFMQLTAKNEMNCKEDQFQLSLLAAMGNTQRKEAADPLASKLNKVTQLTGFSDPVYAEAYVHVNQYDIVLDVLVVNQTSDTLQNCTLELATLGDLKLVEKPSPLTLAPHDFANIKANVKVASTENGIIFGNIVYDVSGAASDRNCVVLSDIHIDIMDYIQPATCTDAEFRQMWAEFEWENKVTVNTNVTDLNDYLQHILKSTNMKCLTPEKALSGYCGFMAANLYARSIFGEDALANVSIEKPVHQGPDAAVTGHIRIRAKSQGMALSLGDKINLSQKKTSL | binds
Farsa (protein, UniProt Q505J8 1-508) MADNPVLEQLLRRLEVADGGLDSAELATQLGVEHQAVVGAVKSLQALGEVIEAELRSTKCWELTTEGEEIAREGSHEARVFRSIPLEGLVQSELMQLPSGKVGFSKAMSNKWIRVDKSAADGPRVFRVVDSIEDEVQRRLQQVQAGQAEKLAEKERNELRKRKLLTEVILKTYWVSKGKGFSTSVSKQEAELSPEMISSGSWRDRPFKPYNFSARGVLPDSGHLHPLLKVRSQFRQIFLEMGFTEMPTDNFIESSFWNFDALFQPQQHPARDQHDTFFLRDPAEALQLPMDYVQRVKRTHSQGGYGSQGYKYTWKLEEARKNLLRTHTTAASARALYRLAQKKPFTPAKYFSIDRVFRNETLDATHLAEFHQIEGVIADHGLTLGHLMGVLREFFTKLGITQLRFKPAYNPYTEPSMEVFSYHQGLKKWVEVGNSGVFRPEMLLPMGLPENVSVIAWGLSLERPTMIKYGINNIRELVGHKVNLQMVYDSPVCRLDIEPRSSKTQEAA | binds
Dnajc10 (protein, UniProt Q498R3 33-793) DQNFYSLLGVSKTASSREIRQAFKKLALKLHPDKNPNNPNAHGDFLKINRAYEVLKDEDLRKKYDKYGEKGLEDNQGGQYESWSYYRYDFGIYDDDPEIITLERREFDAAVNSGELWFVNFYSPGCSHCHDLAPTWREFAKEVDGLLRIGAVNCGDDRMLCRMKGVNSYPSLFIFRSGMAAVKYNGDRSKESLVSFAMQHVRTTVTELSTGNFVNAIETAFAAGIGWLITFCFKGEDCLTPQTRLRLSGMLDGLVNVGWVDCDTQDSLCKSLDATASTTAYFPPGATLNNKEKSSVLFLNSLDAKEIYMEIIHNLPDFELLSANKLEDRLAHHRWLVFFHFGKNENANDPELKKLKTLLKNEHIQVGRFDCSSAPGICSDLYVFQSCLAVFKGQGTKEYEIHHGKKILYDILAFAKESVNSHVTTLGPQNFPASDKEPWLVDFFAPWCPPCRALLPELRKASTLLYGQLKVGTLDCTIHEGLCNMYNIQAYPTTVVFNQSSVHEYEGHHSAEQILEFIEDLRNPSVVSLTPTTFNELVKQRKHDEVWMVDFYSPWCHPCQVLMPEWKRMARTLTGLINVGSVDCQQYHSFCTQENVQRYPEIRFYPQKSSRAYQYHSYNGWNRDAYSLRSWGLGFLPQASIDLTPQTFNEKVLQGKTHWVIDFYAPWCGPCQNFAPEFELLARMIKGKVKAGKVDCQAYPQTCQKAGIRAYPSVKLYLYERAKKSIWEEQINSRDAKTIAALIYGKLETFQSQVKRNKDEL | binds
Cct3 (protein, UniProt Q6P502 1-545) MMGHRPVLVLSQNTKRESGRKVQSGNINAAKTIADIIRTCLGPKSMMKMLLDPMGGIVMTNDGNAILREIQVQHPAAKSMIEISRTQDEEVGDGTTSVIILAGEMLSVAEHFLEQQMHPTVVISAYRMALDDMVSTLKKISTPVDVNNRDMMLNIINSSITTKVISRWSSLACNIALDAVKTVQFEENGRKEIDIKKYARVEKIPGGIIEDSCVLRGVMINKDVTHPRMRRYIKNPRIVLLDSSLEYKKGESQTDIEITREEDFTRILQMEEEYIQQLCEDIIQLKPDVVITEKGISDLAQHYLMRANVTAIRRVRKTDNNRIARACGARIVSRPEELREDDVGTGAGLLEIKKIGDEYFTFITDCKDPKACTILLRGASKEILSEVERNLQDAMQVCRNVLLDPQLVPGGGASEMAVAHALTEKSKAMTGVEQWPYRAVAQALEVIPRTLIQNCGASTIRLLTSLRAKHTQENCETWGVNGETGTLVDMKELGIWEPLAVKLQTYKTAVETAVLLLRIDDIVSGHKKKGDDQNRQTGAPDAGQE | binds
Dlat (protein, UniProt P08461 78-632) SLPPHQKVPLPSLSPTMQAGTIARWEKKEGEKISEGDLIAEVETDKATVGFESLEECYMAKILVPEGTRDVPVGSIICITVEKPQDIEAFKNYTLDSATAATQAAPAPAAAPAAAPAAPSASAPGSSYPVHMQIVLPALSPTMTMGTVQRWEKKVGEKLSEGDLLAEIETDKATIGFEVQEEGYLAKILVPEGTRDVPLGTPLCIIVEKQEDIAAFADYRPTEVTSLKPQAPPPVPPPVAAVPPIPQPLAPTPSAAPAGPKGRVFVSPLAKKLAAEKGIDLTQVKGTGPEGRIIKKDIDSFVPTKAAPAAAAAAPPGPRVAPTPAGVFIDIPISNIRRVIAQRLMQSKQTIPHYYLSVDVNMGEVLLVRKELNKMLEGKGKISVNDFIIKASALACLKVPEANSSWMDTVIRQNHVVDVSVAVSTPAGLITPIVFNAHIKGLETIASDVVSLASKAREGKLQPHEFQGGTFTISNLGMFGIKNFSAIINPPQACILAIGASEDKLIPADNEKGFDVASVMSVTLSCDHRVVDGAVGAQWLAEFKKYLEKPVTMLL | binds
Dpysl5 (protein, UniProt Q9JHU0 1-564) MLANSASVRILIKGGKVVNDDCTHEADVYIENGIIQQVGRELMIPGGAKVIDATGKLVIPGGIDTSTHFHQTFMNATCVDDFYHGTKAALVGGTTMIIGHVLPDKETSLVEAYEKCRALADPKVCCDYALHVGITWWAPKVKAEMETLVREKGVNSFQMFMTYKDLYMLRDSELYQVFHACRDFGAIPRVHAENGELVAEGAKEALDLGITGPEGIEISHPEELEAEATHRVITIANRTHCPIYLVNVSSISAGDVIAAAKMQGKVVLAETTNAHATLTGLHYYHQDWSHAAAYVTVPPLRLDTNTSTYLMSLLANDTLNIVASDHRPFTTKQKAMGKEDFTKIPHGVSGVQDRMSVVWERGVVGGKMDENRFVAVTSSNAAKILNLYPRKGRIIPGADADVVVWDPEATKTISASTQVQGGDFNLYENMRCHGVPLVTISRGRVVYENGVFMCAEGTGKFCPLRSFPDIVYKKLVQREKTLKVRGVDRTPYLGDVAVVVNPGKKEMGTPLADTPTRPVTRHGGMRDLHESSFSLSGSQIDDHVPKRASARILAPPGGRSSGIW | binds
Abcd3 (protein, UniProt P16970 1-659) MAAFSKYLTARNSSLAGAAFLLFCLLHKRRRALGLHGKKSGKPPLQNNEKEGKKERAVVDKVFLSRLSQILKIMVPRTFCKETGYLILIAVMLVSRTYCDVWMIQNGTLIESGIIGRSSKDFKRYLFNFIAAMPLISLVNNFLKYGLNELKLCFRVRLTRYLYEEYLQAFTYYKMGNLDNRIANPDQLLTQDVEKFCNSVVDLYSNLSKPFLDIVLYIFKLTSAIGAQGPASMMAYLLVSGLFLTRLRRPIGKMTIMEQKYEGEYRFVNSRLITNSEEIAFYNGNKREKQTIHSVFRKLVEHLHNFIFFRFSMGFIDSIIAKYIATVVGYLVVSRPFLDLAHPRHLHSTHSELLEDYYQSGRMLLRMSQALGRIVLAGREMTRLAGFTARITELMQVLKDLNHGKYERTMVSQQDKGIEGAQASPLIPGAGEIINADNIIKFDHVPLATPNGDILIQDLSFEVRSGANVLICGPNGCGKSSLFRVLGELWPLFGGHLTKPERGKLFYVPQRPYMTLGTLRDQVIYPDGKEDQKKKGISDQVLKGYLDNVQLGHILEREGGWDSVQDWMDVLSGGEKQRMAMARLFYHKPQFAILDECTSAVSVDVEDYIYSHCRKVGITLFTVSHRKSLWKHHEYYLHMDGRGNYEFKKITEDTVEFGS | binds
